Our source for the binding values is publication PMC3196545.

These are yes or no findings as the source states them, for the method shown. Some entries that bind do so weakly or less than the wild type. Sequences can lack the tags named with a protein.

In this assay the target is T1, PEDF^41–121 fused to the DNA binding domain of LexA (pEG202-PEDF^41–121) (human) (UniProt P36955).
T1 sequence: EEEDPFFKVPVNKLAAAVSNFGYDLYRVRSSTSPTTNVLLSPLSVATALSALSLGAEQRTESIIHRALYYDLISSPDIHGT
The assay can be described thus: two-hybrid; LexA DNA binding domain bait fusion and B42 activation domain target fusion library (human fetal brain cDNA in pJG4-5), yeast EGY48, LEU2 and LacZ reporters.

B1: Transportin-SR2 C-terminal region (amino acids 827 to 923), library clone H in pJG4-5 (domain or fragment, UniProt Q9Y5L0-2 827-923)
chain: NQLGQQLVSQLLHTCCFCLPPYTLPDVAEVLWEIMQVDRPTFCRWLENSLKGLPKETTVGAVTVTHKQLTDFHKQVTSAEECKQVCWALRDFTRLFR
As for B1, the binding entry is on record as “binds”.
